Experimental data as given in US20240000795A1, “METHODS AND COMPOSITIONS RELATING TO CONTROLLING PSYCHEDELIC EFFECTS WITH SEROTONIN RECEPTOR MODULATORS” (Terran Biosciences Inc., priority 2022, published 2024).
For at least one compound, name, drawing or mass did not settle the structure.

Sequences of proteins named here, by UniProt entry; tags and fusion partners are left off.
UniProt P35363, whole entry: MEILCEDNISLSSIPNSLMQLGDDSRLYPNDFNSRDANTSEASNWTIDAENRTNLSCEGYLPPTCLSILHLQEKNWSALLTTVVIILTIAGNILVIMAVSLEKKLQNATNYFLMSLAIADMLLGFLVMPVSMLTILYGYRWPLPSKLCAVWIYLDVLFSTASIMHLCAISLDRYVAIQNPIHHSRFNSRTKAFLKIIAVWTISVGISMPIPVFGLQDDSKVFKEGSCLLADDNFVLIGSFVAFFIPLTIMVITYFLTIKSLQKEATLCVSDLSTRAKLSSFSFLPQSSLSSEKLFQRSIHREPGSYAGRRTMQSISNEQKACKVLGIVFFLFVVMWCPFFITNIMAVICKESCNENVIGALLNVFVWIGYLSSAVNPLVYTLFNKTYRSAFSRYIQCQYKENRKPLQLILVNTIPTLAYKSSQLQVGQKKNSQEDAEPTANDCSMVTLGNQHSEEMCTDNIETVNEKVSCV

Columns and labels:
[1] = tested on: LSD induced head twitches in mice; assay: LSD induced head-twitch response in mice, serotonin receptor modulator dosed i.v. after the psychedelic; assay type: in vivo; details: LSD 0.32 mg/kg i.p.; eplivanserin 1 mg/kg i.v. after T=8 minutes; cumulative head twitches until 40 minutes; n=6 mice
5-HT2A receptors [2] = target: T1, 5-HT2A receptors (Mus musculus, UniProt P35363); assay: Psilocybin-induced head twitch response in mice, 5-HT2A antagonist given i.v. after psilocybin; assay type: in vivo, C57BL/6J mice; parameters: widely used to explore the effect of treatments on 5-HT2A receptors in vivo; from tissue; host or cells: whole living male C57BL/6J mice (behavioural read-out); details: for Result (Psilocybin Combinations tested, summary): summary of Examples 1-17, antagonist administered after psilocybin
Text: See, Keller and Umbreit, Science, 1956, 124: 723). […] The head-shake response is elicited by a wide variety of known hallucinogens such as LSD, psilocybin, psilocin, N,N-dimethyltryptamine (DMT), and mescaline as well as serotonin-releasing agents and direct 5-HT2 agonists. See, Canal and Morgan, Drug Test Anal., 2012, 4, 556-576 2012. 2,5-dimethoxy-4-iodoamphetamine (DOI) has also been reported to elicit head shakes in rats (see Amt and Hyttel Eur. J. Pharmacol., 1989, 161:45; also see Kennett et al., Br. J. Pharmacol., 1994, 111: 797-802) and head-twitches in mice (see Darmani et al., Pharmacol. Biochem. Behav., 1990, 36: […]), both of which were blocked by administration of the fairly selective 5-HT2A antagonist ketanserin. Later studies have confirmed 5-HT2A receptors are the primary, direct mediators of the response and that the headshake response in rats is essentially the same as head-twitches in mice, at least in regards to similarity in appearance and 5-HT2A receptor dependence. […]
(§1) Male C57BL/6J mice (approximately 25 g) was group housed in stock room B20D of the Saretius animal at the University of Reading. […]
At T=−60 min, C57BL/6J mice were individually housed into transparent observation cages with bedding removed and left to habituate. […] Following dosing, mice were replaced into the heated cages and head-twitch responses continuously scored for 7 min. […] Mice were replaced into the observation cages and head twitch behavior were monitored until 40 min after agonist dosing. Cumulative head-twitches were measured every 2 minutes until 40 minutes after agonist dosing.
At T=−60 min, C57BL/6J mice were individually housed into transparent observation cages with bedding removed and left to habituate. […] Following dosing, mice were replaced into the heated cages and head-twitch responses continuously scored for 7 min. […] Mice were replaced into the observation cages and head twitch behavior was monitored until 40 min after agonist dosing. Cumulative head-twitch behavior was measured every 2 minutes until 40 minutes after agonist dosing. […]

5-HT2A receptors [3] = target: T1, 5-HT2A receptors; assay: LSD-induced head twitch response in mice, 5-HT2A antagonist given i.v. after LSD; assay type: in vivo, C57BL/6J mice; parameters: widely used to explore the effect of treatments on 5-HT2A receptors in vivo; from tissue; host or cells: whole living male C57BL/6J mice (behavioural read-out); details: for Result (LSD Combinations tested, summary): summary of Examples 1-17, antagonist administered after LSD
Text: See, Keller and Umbreit, Science, 1956, 124: 723). […] The head-shake response is elicited by a wide variety of known hallucinogens such as LSD, psilocybin, psilocin, N,N-dimethyltryptamine (DMT), and mescaline as well as serotonin-releasing agents and direct 5-HT2 agonists. See, Canal and Morgan, Drug Test Anal., 2012, 4, 556-576 2012. 2,5-dimethoxy-4-iodoamphetamine (DOI) has also been reported to elicit head shakes in rats (see Amt and Hyttel Eur. J. Pharmacol., 1989, 161:45; also see Kennett et al., Br. J. Pharmacol., 1994, 111: 797-802) and head-twitches in mice (see Darmani et al., Pharmacol. Biochem. Behav., 1990, 36: […]), both of which were blocked by administration of the fairly selective 5-HT2A antagonist ketanserin. Later studies have confirmed 5-HT2A receptors are the primary, direct mediators of the response and that the headshake response in rats is essentially the same as head-twitches in mice, at least in regards to similarity in appearance and 5-HT2A receptor dependence. See, Canal and Morgan, Drug Test Anal., 2012, 4, 556-576 2012.
as §1
At T=−60 min, C57BL/6J mice were individually housed into transparent observation cages with bedding removed and left to habituate. At T=−2 min, mice were placed into heated cages at 40° C. At T=0 h, groups of 3 mice were dosed intraperitoneally with LSD (0.32 mg/kg). Following dosing, mice were replaced into the heated cages and head-twitch responses continuously scored for 8 min. After 8 min, mice were intravenously dosed via the lateral tail vein with either vehicle 1 (saline) or volinanserin 1 mg/kg in 5 mL/kg dosing volumes. Mice were replaced into the observation cages and head twitch behavior were monitored until 40 min after agonist dosing. Cumulative head-twitch behavior was measured every 2 minutes until 40 minutes after agonist dosing.
At T=−60 min, C57BL/6J mice were individually housed into transparent observation cages with bedding removed and left to habituate. At T=−2 min, mice were placed into heated cages at 40° C. At T=0 h, groups of 3 mice were dosed intraperitoneally with LSD (0.32 mg/kg).

[4] = background; compared with a therapy session of up to several hours; cited from earlier work

CN(C)CCO/N=C(/C=C/c1ccc(O)cc1)c1ccccc1F [eplivanserin]
head-twitch response [1]: partially suppressed | head-twitch response (cumulative head-twitches) (5-HT2A receptors [2]; psilocybin 2 mg/kg i.p., antagonist 1 mg/kg i.v. after 7 min, monitored until 40 min after agonist dosing): completely suppressed | Result (Psilocybin Combinations tested, summary) (5-HT2A receptors [2]): full ending | Result (Psilocybin Combinations tested, summary) (5-HT2A receptors [2]; listed as Eplivanserin): Full suppression of head twitch | head-twitch response (cumulative head-twitches) (5-HT2A receptors [3]; LSD 0.32 mg/kg i.p., antagonist 1 mg/kg i.v. after 8 min, monitored until 40 min after agonist dosing): partially suppressed | head-twitch response (average cumulative head twitches, pooled Example 6 and Example 15) (5-HT2A receptors [3]; LSD 0.32 mg/kg i.p., antagonist 1 mg/kg i.v. after 8 min, pooled n=3 and n=6): partially suppressed | Result (LSD Combinations tested, summary) (5-HT2A receptors [3]): partial suppression | Result (LSD Combinations tested, summary) (5-HT2A receptors [3]; listed as Eplivanserin): Partial suppression of head twitch

CN(C)CCc1c[nH]c2cccc(OP(=O)(O)O)c12 [psilocybin]
duration of effects [4]: 6 h
